PubChem BioAssay AID1259308, NCATS | 2017

Purpose: 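Genes whose loss raises luciferase production in HEK293 cells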 (primary screen)
Cells: human HEK293 embryonic kidney cells stably expressing firefly luciferase (HEK-CMV-Luc2-Hygro)
Knock-down reagent: single siRNA against human genes, 0.8 pmol siRNA per well
Duration: 72 h
Measurement: 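Reporter luminescence and viable-cell signal on separate replicate plates, given as percent of non-targeting control and median/MAD z-scores, plus per-cell luciferase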
Direction: total luciferase, z-score: higher = more reporter protein produced
Active means: 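An siRNA counts as active if its total luciferase robust z-score exceeds 3; genes with two or more such siRNAs out of three were retested with fresh siRNAs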
Calls: active = raised luciferase; inactive = no rise
This is one part, drawn at random, of about 59,000 deposited reagents. In the full data, about 1,510 (2.6%) were called active. 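Calls use total luciferase alone and ignore viability, so some active siRNAs may act by altering cell number.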 A number with no mark means an inactive call. The numbers tell different reagents against one gene apart. Further read-outs or replicates are left out here.

total luciferase, z-score, by gene symbol and reagent
MAGEB5: #1 -0.87; #2 1.38; #3 0.456
CD38: #1 0.236; #2 -1.78; #3 -1.2
ZNF826P: #1 -0.507; #2 0.341; #3 -0.762
SERGEF: #1 -0.823; #2 -0.0836; #3 -2.24
MSANTD2: #1 -1.47; #2 -1.68; #3 1.74
CMTM2: #1 0.528; #2 -0.374; #3 0.593
TTLL4: #1 -1.23; #2 -0.265; #3 1.18
CACNB1: #1 -2.09; #2 0.0192; #3 3.15 (active)
OTUD3: #1 -0.0227; #2 0.116; #3 -1.09
OPRM1: #1 -0.659; #2 -0.154; #3 0.497
MBOAT2: #1 1.24; #2 0.0296; #3 -0.508
STK24: #1 1.32; #2 -0.589; #3 -0.0338
BLOC1S2: #1 1.26; #2 0.479; #3 -1.89
RPL7L1P5: #1 1.08; #2 0.623; #3 0.163
PRELID2: #1 1.97; #2 -0.243; #3 0.913
SRL: #1 -0.18; #2 1.23; #3 -1.14
SEMA4B: #1 1.13; #2 0.76; #3 -0.979
SPINT1: #1 -0.894; #2 -0.0617; #3 0.0811
GLRX2: #1 -0.121; #2 -1.24; #3 -0.657

Not a retest: an excerpt of the list.
total luciferase, z-score, by gene symbol and reagent
STK24: #2 -0.589; #3 -0.0338
BLOC1S2: #1 1.26
